Where a sequence shows no end group, the ends are not given. Non-standard residues stand in square brackets, D forms with d. No end group written: not given here. Aib = CC(C)(N)C(=O)O
Experiment: general procedure: Fmoc solid-phase peptide synthesis; Wang type resins or super acid labile resins of the CI-Trt or Sasrin type
Conditions: whole synthesis, RP-HPLC and mass spectrometry (ESI-TOF), trifluoroacetate salt or chloride salt

Substance | final HPLC purity
[Aib]WFKYYGKAIY | 96.1%
WFKYYGKAIY | 99.9%
Pal-WFKYYGKAIY | 95.0%
CF-WFKYYGKAIY | 97.7%
Pal-WFKYYGK-Aib-IY | 99.9%
CF-WFKYYGK-Aib-IY | 83.1%
WFKYYGK-Aib-IY | 97.8%
